Data source: PubChem BioAssay AID1259405 (NCATS, 2018)

- Aim: 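Knock-downs that lift recombinant protein yield in hamster ovary cells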 (primary screen)
- System: Chinese hamster CHO-K1 ovary cells with stable secreted eGFP expression
- Knock-down reagent: single siRNA against mouse genes, 0.8 pmol siRNA per well (2 µl of 400 nM stock)
- Timing: 3 days
- Measurement: 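Per-well intracellular GFP measured by laser scanning cytometry, plus viability from ATP luminescence, each relative to plate median of non-targeting control wells, in %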
- Scale: GFP, % of control: higher = more GFP per well, higher productivity
- Rule for the call: 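Called active when intracellular GFP, relative to negative control, is at or above 120%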
This is an unselected part of about 50,000 deposited reagents. Of all reagents, about 4,000 (8%) are marked active. 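Mouse siRNA library applied to hamster cells; one well for each siRNA.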 Further read-outs or replicates are left out here.

GFP, % of control, by gene knocked down and reagent
Dsg1b: SID363541595 100 inactive; SID363553187 122 active; SID363566511 52 inactive
Miga1: SID363547089 34.1 inactive; SID363549901 89.9 inactive; SID363587955 89.5 inactive
Lmntd1: SID363540901 63.1 inactive; SID363555528 67 inactive; SID363565817 59.3 inactive
Ghitm: SID363540151 64.2 inactive; SID363561452 89.1 inactive; SID363564488 72.4 inactive
Fry: SID363539584 85.5 inactive; SID363560885 102 inactive; SID363564975 100 inactive
Jph2: SID363540471 51.8 inactive; SID363542223 80.2 inactive; SID363567139 51.2 inactive
Cyp2c66: SID363573008 69 inactive; SID363577584 79.2 inactive; SID363581104 51.4 inactive
Coxfa4l3: SID363556846 70.4 inactive; SID363563750 73.8 inactive; SID363587296 77.4 inactive
Cbfa2t3: SID363584452 69.5 inactive; SID363589482 68.4 inactive
Zfa-ps: SID363573797 102 inactive; SID363581541 124 active; SID363584005 86.3 inactive
A630001O12Rik: SID363542848 101 inactive; SID363546365 40.7 inactive; SID363548121 79 inactive
Zbtb37: SID363555410 68.7 inactive; SID363564071 58.2 inactive; SID363587617 101 inactive
Slc29a4: SID363574855 89.5 inactive; SID363575911 51.4 inactive; SID363580487 82 inactive
Lmnb1: SID363572371 65.1 inactive; SID363574131 89.3 inactive
Supt20: SID363539555 119 inactive; SID363560856 79.7 inactive; SID363564946 113 inactive
Rabggtb: SID363570422 6.35 inactive; SID363579222 68.2 inactive; SID363583094 108 inactive
Nxph3: SID363541764 66.8 inactive; SID363553356 118 inactive; SID363566680 77.2 inactive
Tfeb: SID363573703 70.8 inactive; SID363581447 59.1 inactive; SID363583911 88.5 inactive
Srr: SID363568669 146 active; SID363576061 57 inactive; SID363578877 61.9 inactive
Il12b: SID363541472 48.2 inactive; SID363556099 55.9 inactive; SID363566388 83.6 inactive
Trim67: SID363541907 46.6 inactive; SID363553499 74.7 inactive; SID363566823 90.1 inactive
Zfp503: SID363556719 93.6 inactive; SID363563623 68.6 inactive; SID363587169 89.9 inactive
Acot13: SID363570238 79.1 inactive; SID363576574 72 inactive; SID363579742 56.5 inactive
Tcstv2a: SID363542714 96.3 inactive; SID363546231 78 inactive; SID363547987 87.6 inactive
Or1ad1: SID363554142 98 inactive; SID363567589 54.6 inactive; SID363584946 44 inactive
Ly6d: SID363540323 63.6 inactive; SID363542075 72.2 inactive; SID363566991 105 inactive
Tas2r136: SID363556271 115 inactive; SID363586721 65.9 inactive; SID363588829 79.3 inactive
Sanbr: SID363540809 70.5 inactive; SID363543260 69.7 inactive; SID363552753 103 inactive
Kcnip3: SID363553653 49.8 inactive; SID363561610 76.1 inactive; SID363565348 71.2 inactive
Spc25: SID363543882 72.9 inactive; SID363551618 61 inactive; SID363559223 52.3 inactive
Cd300lb: SID363544062 68.5 inactive; SID363550390 46.4 inactive; SID363556939 57.3 inactive
E330037G11Rik: SID363539529 35.3 inactive; SID363560830 73.6 inactive; SID363564920 69.2 inactive
Dvl1: SID363581674 80.7 inactive; SID363589168 69.2 inactive
Bpifa5: SID363547824 131 active; SID363558593 96.7 inactive; SID363560351 102 inactive
Tfec: SID363541092 101 inactive; SID363555719 66.2 inactive; SID363566008 66.1 inactive
Scel: SID363555027 31.9 inactive; SID363568474 54.8 inactive; SID363586533 58.9 inactive
Or10q12: SID363544650 183 active; SID363550978 52.8 inactive; SID363557527 62.5 inactive

Hits, of those listed so far:
GFP, % of control, by gene knocked down and reagent
Dsg1b: SID363553187 122 active
Zfa-ps: SID363581541 124 active
Srr: SID363568669 146 active
Bpifa5: SID363547824 131 active
Or10q12: SID363544650 183 active
